Assay results taken from paper PMC11734925.
Results are given in words; binding and its absence hold for the method and conditions named. Binding seen in cells or lysates may run through a third protein. A yes stands for co-enrichment or nearness to the bait. Other partners may have been found. For part of these data: Tags and fused reporters may be left off the sequences shown.

By UniProt entry, the sequences of proteins in these tests, tags left out. Where a name states a change or a piece, a line headed by the entry shows the natural chain unless it says otherwise.
UniProt A1ZBF8: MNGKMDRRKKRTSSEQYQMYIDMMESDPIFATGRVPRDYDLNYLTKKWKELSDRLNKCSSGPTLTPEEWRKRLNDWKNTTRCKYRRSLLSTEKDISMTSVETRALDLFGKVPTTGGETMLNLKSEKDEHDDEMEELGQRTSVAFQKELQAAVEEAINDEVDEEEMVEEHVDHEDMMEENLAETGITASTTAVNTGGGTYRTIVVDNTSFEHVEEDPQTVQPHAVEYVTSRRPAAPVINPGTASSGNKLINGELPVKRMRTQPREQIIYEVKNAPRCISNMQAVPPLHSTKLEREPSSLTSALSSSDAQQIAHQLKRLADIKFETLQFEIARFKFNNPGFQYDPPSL
UniProt Q9VCH7: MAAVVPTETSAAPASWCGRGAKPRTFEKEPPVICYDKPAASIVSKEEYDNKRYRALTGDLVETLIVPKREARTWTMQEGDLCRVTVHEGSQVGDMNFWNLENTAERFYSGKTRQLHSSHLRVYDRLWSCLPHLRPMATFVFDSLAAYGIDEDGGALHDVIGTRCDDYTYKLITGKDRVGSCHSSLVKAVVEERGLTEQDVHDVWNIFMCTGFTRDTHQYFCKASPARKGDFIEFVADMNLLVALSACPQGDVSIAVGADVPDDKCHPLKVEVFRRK
UniProt Q9VGK3: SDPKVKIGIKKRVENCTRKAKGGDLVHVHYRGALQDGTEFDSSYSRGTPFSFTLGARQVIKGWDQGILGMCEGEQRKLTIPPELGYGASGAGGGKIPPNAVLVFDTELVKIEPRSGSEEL

How the values were obtained:
[1] = molecular target: T1, GFP-Piwi (D. melanogaster) (UniProt Q9VKM1); experiment: affinity purification with mass spectrometry; GFP-Piwi captured on anti-GFP nanobody magnetic beads from embryo lysate (lysed as the ovaries: 450 mM NaCl, 0.2% NP40, benzonase), 90 min at 4°C; hits against the NLS-GFP control pulldown
T1 sequence: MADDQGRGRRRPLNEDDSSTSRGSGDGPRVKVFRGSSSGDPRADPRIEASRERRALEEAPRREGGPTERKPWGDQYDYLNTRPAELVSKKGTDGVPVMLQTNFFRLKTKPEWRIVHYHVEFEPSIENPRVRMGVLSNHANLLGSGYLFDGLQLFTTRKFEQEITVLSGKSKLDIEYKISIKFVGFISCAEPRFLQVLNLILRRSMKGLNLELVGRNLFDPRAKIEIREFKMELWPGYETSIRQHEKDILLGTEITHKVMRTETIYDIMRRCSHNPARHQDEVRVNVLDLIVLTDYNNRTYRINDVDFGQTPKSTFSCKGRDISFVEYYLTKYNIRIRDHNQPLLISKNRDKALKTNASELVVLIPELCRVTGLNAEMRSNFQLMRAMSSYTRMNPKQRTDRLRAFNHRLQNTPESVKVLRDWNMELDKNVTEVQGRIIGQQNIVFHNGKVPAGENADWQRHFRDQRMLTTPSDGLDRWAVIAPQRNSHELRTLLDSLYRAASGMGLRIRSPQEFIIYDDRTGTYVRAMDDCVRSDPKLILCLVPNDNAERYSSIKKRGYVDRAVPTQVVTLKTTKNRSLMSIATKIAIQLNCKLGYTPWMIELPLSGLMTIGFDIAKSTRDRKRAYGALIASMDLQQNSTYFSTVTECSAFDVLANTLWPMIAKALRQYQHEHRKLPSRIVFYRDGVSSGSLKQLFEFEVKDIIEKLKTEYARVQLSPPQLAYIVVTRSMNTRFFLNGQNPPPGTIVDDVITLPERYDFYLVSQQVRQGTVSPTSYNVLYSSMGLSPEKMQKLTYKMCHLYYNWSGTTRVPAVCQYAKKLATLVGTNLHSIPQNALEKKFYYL

[2] = molecular target: T2, GFP-D1 (D. melanogaster) (UniProt P22058); experiment: affinity purification with mass spectrometry; GFP-D1 or GFP-Prod captured on anti-GFP nanobody magnetic beads from lysate of nuclei isolated from embryos (450 mM NaCl, 1% Triton-X, benzonase), 90 min at 4°C; washes with 450 mM NaCl; hits against the NLS-GFP control pulldown
T2 sequence: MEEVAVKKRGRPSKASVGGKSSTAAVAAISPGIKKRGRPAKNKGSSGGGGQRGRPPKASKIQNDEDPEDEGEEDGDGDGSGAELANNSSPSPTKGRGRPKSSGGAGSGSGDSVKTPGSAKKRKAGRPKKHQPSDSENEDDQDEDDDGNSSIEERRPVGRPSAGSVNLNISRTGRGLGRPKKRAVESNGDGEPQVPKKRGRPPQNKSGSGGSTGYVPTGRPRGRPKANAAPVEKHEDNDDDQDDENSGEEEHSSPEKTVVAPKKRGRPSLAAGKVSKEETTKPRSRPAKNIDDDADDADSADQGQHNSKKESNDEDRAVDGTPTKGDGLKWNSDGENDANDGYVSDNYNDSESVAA

[3] = molecular target: GFP-Prod (D. melanogaster) (UniProt A1ZBF8); experiment: as above
[4] = molecular target: T2, GFP-D1 (D. melanogaster); experiment: affinity purification with mass spectrometry; GFP-D1 or GFP-Prod captured on anti-GFP nanobody magnetic beads from ovary lysate (450 mM NaCl, 0.2% NP40, benzonase), 90 min at 4°C; washes with 450 mM NaCl; hits against the NLS-GFP control pulldown

CG10208 (from UniProt Q9VCH7) was tested, and the binding [1] was “binds”, the binding [2] was “binds” and the binding [3] was “binds”.

For “Female independent of transformer (Fit) (D. melanogaster (endogenous in embryos))”, the binding [1] was “binds” and the binding [2] was “binds”.

For CG14715 (from UniProt Q9VGK3), the binding [1] was “binds”, the binding [2] was “binds” and the binding [3] was “binds”.

For “Ugt35D1 (D. melanogaster (endogenous in embryos))”, the binding [1] was “binds” and the binding [2] was “binds”.

B1: Smn (protein, UniProt Q9VV74 1-226)
chain: MSDETNAAVWDDSLLVKTYDESVGLAREALARRLADSTNKREEENAAAAEEEAGEISATGGATSPEPVSFKVGDYARATYVDGVDYEGAVVSINEEKGTCVLRYLGYENEQEVLLVDLLPSWGKRVRREQFLIAKKDEDEQLSRPKASAGSHSKTPKSSRRSRISGGLVMPPMPPVPPMIVGQGDGAEQDFVAMLTAWYMSGYYTGLYQGKKEASTTSGKKKTPKK
B1 was tested, and the binding [4] was “binds”.

B2: bocks (protein, UniProt Q709R6 1-399)
chain: MSDLSYLDTLGNKELLAKCLEHGLPGVPVTDSTRSVIIRRLKAKITGVPLNKSKSASKKAIPRRETVHGSQVTTPTSEPVRRTPGKSAGRTSSNNNKISEQSRRTIAYGLDNTSISGRSVQTTTTVSDMSSQSEDDDSYMVDSPVPNYSKDQQPRRYVSLAKSGVLTTSYTREVDQPLYEQEDIPRSYTYERPHVPAATLHALPTYEPRIEPSTYRPTDLGFSRPLLTQTNLNSTSYEESSTYNPKLSPISPRNTFSGSARPFGGPAPAPAPIRQRQSVPVSGSNLARGRLLQPTTAVNTLYPQLNEFYDQPNDAGEPMETESESEVEEVPINSHFQKNRFSPLARKPLVRHHDQVSPMAQFRALAVSLDQKYNLKFYLILVVSVMLATMVYVVLTPNA
In the case of B2, the binding [3] is reported as “binds”.

B3: Maelstrom (Mael) (protein, UniProt Q9VNS0 1-459)
chain: MAPKKHSGFMMFVNEWRNRNAEGRRMTLAQAVSHCGTIWEKMNTQQRGPYNSGGKDANVAQRAKRESSNGHGQVDKAQREATESLMDMKRTIERLVLNAKMSHDLENAKFVFVAFNYFTKALTTDVYVPAEFAACEYSLKEGIRSIYSTMIDPGQIIFGQGSDALLHSSTTHDLPLPPNALGEKNMTKLYRNIVDYLSKCQGKGKTLVVFTPAENITMVKSCFRYLECDDDFRDGGEKIQVFDIQYLLFILKKEVMNVADLNDEKINKFATDAFFKKDFFEFTAGIACQYHEDNDRTKYCTQSMVTRWAYTFTDFMCGDLAITVQPGKHIPAQTKPNYLIISSYASSLDHESSFDSFYSLPGSGVKKESQPEACSLSSSRLSVASSSYKPIDHTSFAANLNEVSEFPSLGMRNSSKHHGIAASAQREWNARNLPTHSRLIRKVSDNDFSVNGADGKLKK
In the case of B3, the binding [2] is reported as “binds” and the binding [3] is reported as “binds”.

B4: mei-S332 (protein, UniProt Q24141 1-401)
chain: MGSKVEQQYKLLNAELMDQVQKQRLEIGEYRKRVISLEREIMDIREEHVLQNHRQRMENISIVRSLMLSLNVDSDSLAVRQEPAPAAQINRPSGPRRSSREICKDMRRTCALARTTRPISPRRSSSVTSTVSSTSRRSSAEVQSEVVTTRIPEDRRANKPTPPPRRPAELVFDEDDSDDDFDEAVSPVEETQTEQNEENNRLFSIIEENGSEGESTDSSSSCEAIYCDTTFESSPPNAQVTVTPSGRALREVDTNIPVAVSLSRGKETGKGSWLAISVAVEDSPQEPSIQCPRLAVTRPSQSSGIFPDVNGLTPRRSLFNGIGKMAGSTSTPKSFLVEEMPSIRTRSRTAANKKSENTDMSSSFCNNSARPSRSCRPTSLVEPSLKNKLRNGSKGKAKAKK
With B4 the binding [2] was “binds”.

B5: Mes-4 (protein, UniProt Q8MT36 1-1427)
chain: MKLSTDAHSEIEGDAAHGNVLCNSASDSLTATDEVAAGNDESVATEGDDVEIPRDTNNSTPVRLLDKPGQNPVQNGAQPAAEESELESQRQTPVQKQQQQRVSMVNRKRDLINLQSALSPKYIGYANANSPTPLSDSDDTIRTTRRRVNQAAALNNSSAGETLAHDNASPRTPGGGGGGGGDDSANQLLSKTYMSPIEKLLIKNGASSPNSTGFEAGSEDLGIRPIVRKHVKRKMKRVPKAKVTLELDEKNQQEVDEKSVKTEPIDEEVDRTDEAPTQEAQTTAISIKSETEAEHKAAVDVHIKQEDTIRLDIVNNPVESTSIVITEEPKDLEKSTEELAFALPLASSTEVDLKSPPDLSSTALATSIKSPSSVSIDSAKGLSIVTDPGWPTYQVGDLFWGKVFSYCFWPCMVCPDPLGQIVGNMPSHPQRSSLDNANVPIQVHVRFFADNGRRNWIKPENLLTFAGLKAFDDMREELRIKHGPKSAKYRQMVPKRTKVVIWRQAIEEAQAMTQIPYSDRLEKFYQTYENVVTLNRQKRKRTKYMMQDTSDVGSSLYDSTDNLHNKQGTQLLAVKRERSESPFSPAFSPVKSKNEKRAKRRKLSNGTEADTGSNSMAVTPSQTETTVDSSAYENPEFRQLLSAVMEYVMMNRSDEKVEKVLLSVVSNIWSLKQIQLRELERDLASGEIEEPLGSSVVGRGSGVGTIKRLSNRLMTMMVRRSMTPVVTPSTTPAPSEPDRRLSEPPKTKKPVNRPIEEVIEDILQLDSKYLFRGLSREPICKYCYQAGSDLVRCSRTCSSWLHADCLERKVTGAPMPKIGSRKALVIPPTSKSPSPDEDHVTADAKEVVAVGTSLVCHECNVGEPEGCVICHQVESPAVPSTPRKEDSSSHTPIEDKLLTCSQPMCGKRFHTSCCKYWPQASSSKHSARCPRHVCHTCVSDDPSGKFQQLGSSKLAKCVRCPATYHQLSKCIPAGTQMLNTTNIICPRHNIAKADAHVNVLWCYICVKGGELVCCETCPIAVHAHCRNIPIKTNESYICEECESGRLPLYGEIVWAKFNNFRWWPAIILPPTEVPSNILKKAHGENDFVVRFFGTHDHGWISRRRVYLYIEGDTGDGHKTKSQLFRNYTTGVEEASRFLPIIKARRQEQDMERQSGNKLHPPPYVKIKTNKAVPPLRFSQNLEDLSTCNCLPVDEHPCGPEAGCLNRMLFNECNPEYCKAGSLCENRMFEQRKSPRLEVVYMNERGFGLVNREPIAVGDFVIEYVGEVINHAEFQRRMEQKQRDRDENYYFLGVEKDFIIDAGPKGNLARFMNHSCEPNCETQKWTVNCIHRVGIFAIKDIPVNSELTFNYLWDDLMNNSKKACFCGAKRCSGEIGGKLKDDAVKAHAKLKQMRRAKASAVRIHVKPKKTPKVKHISADDEPMDAKDE
With B5 the binding [2] was “binds”.

B6: Borealin (Borr) (protein, UniProt Q9VLD6 1-315)
chain: MPRTKIPKNSKRNREVANREEKVRLYELKMDSRLISIDSLETKFLSAVDHQVKTLLGQVQKELANLKMPEVLRLFEELDRFSDFKASDQTQLLASMSMSGSAIEGHAPSATGSRNDEEDSSIGASGGSILAAHTGSLLRSTKAMRTPGPLHSARARRARRSRSACGDLNILHSAKPPSISSSSSSSRNSRSKLRTPMASRAKAFSADRTPLKQKQMRSGSPTTPPMAFLRYPKPGEVALSKYGSPMVAQVMPDKFANVNIPIRNGVLSLRPKKLDADEVESNLLENLDEDTLNQIKTLHENLQMIVNKASQAVFK
In the case of B6, the binding [2] is reported as “binds”.

B7: Aurora B (protein, UniProt Q9VKN7 1-329)
chain: MTLSRAKHANRNHLPHLLAKVPEEHQEPIKNMCLKMMSHDAYGQPYDWSPRDFEMGAHLGRGKFGRVYLARERHSHYLVAMKVMFKEELRKGCVQRQVLREIEIQSRLKHPHILRLLTWFHDESRIYLALEIASEGELFKHLRGAPNHRFDEPRSAKYTYQVANALNYCHLNNVIHRDLKPENILLTSTDDLKLADFGWSAHTPNNKRRTLCGTLDYLPPEMVDGNSYDDSVDQWCLGILCYEFVVGCPPFESNSTESTYSKIRRMEISYPSHLSKGCKELIGGLLRKESKGRITLVDVMTHYWVKAGMAERELQLQKRERGKENTARN
For B7, the binding [2] was “binds”.
